The other results are listed elsewhere or left out.

The experiment has as its system T1, CTL2-GFP (C. trachomatis L2/434/Bu, GFP-expressing).
T1 construct: L2/434/Bu, GFP-expressing
Also on record: species or system HeLa; Intracellular C. trachomatis growth in HeLa cells, bulk GFP fluorescence relative to DMSO. Conditions: bulk GFP, single well; 28.5 h, 10 µM; inhibitor.
On to `O=C(O)CCC(=O)NCC1OCCc2ccccc21` (stereo not drawn) [CBK265865], for which the “% of control remaining” value is 130.094%.
In the case of `Cc1nnc2n1-c1ccc(Cl)cc1C(c1ccccc1)=NN2CCCC(=O)c1ccc(F)cc1` [CBK016076], the “% of control remaining” value was 146.39%.
For the compound `CCc1nc2ccc(C(=O)NC3=NN(c4ccccc4)C(=O)C3)cn2c1N(C)C(=O)COc1ccccc1` [CBK145873], the “% of control remaining” value came out at 108.579%.
Take `Cc1ccc(CN(C)C(C)C(=O)NCc2cccs2)cc1` (stereo not drawn) [CBK295663]: the “% of control remaining” value is 136.064%.
As for `Cc1nccc(C(=O)N2CCC3(C/C=C/C[C@H]4COCC[C@H]4NC(=O)CNC3=O)CC2)n1` [CBK292072], the figure is 144.769%; as for `COc1ccnc(Cn2ncc(N3CCCC3)cc2=O)c1OC` [CBK306672], 122.866%.
For `CCOc1ccc(S(=O)(=O)N2CCCN(Cc3cccc(C(F)(F)F)c3)CC2)c2cccnc12` [CBK062760], the “% of control remaining” value stood at 103.081%.
`O=C(O)COc1ccc(/C=C/c2nc3n(n2)C=COc2ccccc2-3)cc1` [CBK286650]: the “% of control remaining” value stood at 113.201%.
As to `COc1ccccc1-c1nccnc1N1CCN(c2ccncc2)CC1` [CBK037081], the “% of control remaining” value worked out at 122.676%.
Regarding `O=C(O)CSc1nnc2ccc(C(F)(F)F)cn12` [CBK018930], the “% of control remaining” value worked out at 155.842%.
As for `CCc1cc(CNC(=O)C(c2ccc(Cl)cc2)N(C)C)on1` (stereo not drawn) [CBK281670], the figure is 107.311%; as for `CC1=NN(C(=O)NS(=O)(=O)c2ccccc2Cl)C(C)(C)C1` [CBK018947], 107.691%.
With `O=C(O)C1C2C=CC(O2)C1C(=O)NCCCc1ccccc1` (stereo not drawn) [CBK286982], the “% of control remaining” value came out at 124.325%.
Take `CC(=O)Nc1ccc(NC(=O)CSC2=C(C#N)C(c3ccco3)C3=C(CCCC3=O)N2)cc1` (stereo not drawn) [CBK264462]: the “% of control remaining” value came out at 118.303%.
As for `O=C(O)CNS(=O)(=O)c1cccc2nsnc12` [CBK261136], the figure is 100%.
In the case of `CN(C)CCNC(=O)c1cccc(-c2cncc(NCc3ccc4c(c3)OCO4)n2)c1` [CBK065361], the “% of control remaining” value is on record as 105.419%.
Consider `O=C(c1ccncc1)N1Cc2ccccc2C1` [CBK200316], for which the “% of control remaining” value amounted to 141.334%.
In the case of `CN(Cc1ccccc1)C(=O)c1cc(=O)[nH]c2ccccc12` [CBK287971], the “% of control remaining” value turned out to be 142.919%.
Regarding `Cc1ccc(CNC(=O)CN(c2cccc(C(F)(F)F)c2)S(=O)(=O)c2ccc(C)cc2)cc1` [CBK263997], the “% of control remaining” value stood at 128.161%.
To `OC(CNCc1ccc2c(c1)OCO2)CSc1ccccc1` (stereo not drawn) [CBK074684] belongs 87.8276%; to `CC(C)(C)c1csc(NC(=O)C2CCCCC2)n1` [CBK058720], 100.317%; to `O=C(Nc1ccc(F)cc1)OCC1COc2ccccc2C1` (stereo not drawn) [CBK017146], 85.5632%.
In the case of `CS(=O)(=O)N1CC2(CCN(Cc3ccc([N+](=O)[O-])cc3)CC2)c2ccccc21` [CBK084010], the “% of control remaining” value was 98.8361%.
Regarding `c1csc(Sc2nccnc2N2CCCC2)n1` [CBK093805], the “% of control remaining” value is given as 120.44%.
For the compound `Nc1c(C(=O)NCc2ccco2)c2nc3ccccc3nc2n1C1CCCC1` [CBK269323], the “% of control remaining” value was found to be 55.0122%.
On to `CC(C)NC(=O)CC[C@@H]1CNC(=O)[C@@H]2C[C@H](NC(=O)c3ccccc3)CN12` [CBK289002], for which the “% of control remaining” value is 127.747%.
Consider `COc1ccc(OCc2nc(C)cc(=O)n2CC(=O)NC(C)C)cc1` [CBK300525], for which the “% of control remaining” value worked out at 105.126%.
`OCCN(CCO)Cc1ccc(Cl)c(Cl)c1` [CBK261919]: the “% of control remaining” value is given as 100%.
For `COc1ccc2nc(Nc3nc4ccc(S(C)(=O)=O)cc4s3)sc2c1` [CBK287484], the “% of control remaining” value turned out to be 154.499%.
For the compound `CCc1nccn1CCC(=O)N1CC(OCc2ccccc2F)C1` [CBK306597], the “% of control remaining” value is recorded as 121.823%.
With `Cc1ccc(CS(=O)(=O)NCc2ccccc2-n2ccnc2)cc1` [CBK281462], the “% of control remaining” value stood at 117.089%.
As to `N#CC1=C(N)Oc2[nH]nc(-c3ccccc3)c2C12C(=O)N(Cc1ccccc1)c1ccccc12` (stereo not drawn) [CBK267787], the “% of control remaining” value is recorded as 100.777%.
Take `COc1cccc2c1OCC[C@@H]2Oc1cncc(N2CCNCC2)n1` [CBK172305G]: the “% of control remaining” value is given as 108.335%.
`CC(NC(=O)CSc1ncc(-c2ccccc2)nn1)c1ccccc1` (stereo not drawn) [CBK267514]: the “% of control remaining” value is 142.155%.
`N#CCCCN1CCC(Oc2cncc(OCc3cccnc3)n2)C1` (stereo not drawn) [CBK084466]: the “% of control remaining” value was determined as 106.315%.
Turning to `COCOc1ccc(-c2ncc(OCc3ccc4c(c3)OCO4)nc2N)cc1` [CBK145101], the “% of control remaining” value is reported as 88.2506%.
Consider `Nc1cc(S(=O)(=O)Nc2ccc(C(F)(F)F)cc2)ccc1N1CCCNCC1` [CBK001518C], for which the “% of control remaining” value is 115.561%.
For the compound `CC(NCC(O)COCc1ccc(Cl)cc1)c1ccccc1` (stereo not drawn) [CBK027972C], the “% of control remaining” value came out at 128.662%.
As for `CN1CCC(N2CCN(C(=O)c3ccccc3Nc3cccc(C(F)(F)F)c3)CC2)CC1` [CBK149097], the “% of control remaining” value worked out at 131.168%.
Turning to `CCC(=O)Oc1ccc(C(=O)N2CCN(c3ccccc3F)CC2)cc1` [CBK307538], the “% of control remaining” value came to 129.274%.
`CN(C)CCNC(=O)NC(c1ccccc1)c1ccccc1` [CBK263505C]: the “% of control remaining” value is listed as 109.204%.
Turning to `COc1cc(-c2nc3ncccc3cc2NS(C)(=O)=O)cc(OC)c1OC` [CBK085697], the “% of control remaining” value is given as 101.755%.
Consider `O=C(O)c1cc(NC(=O)c2ccc(NC(=O)c3ccco3)cc2)cc(C(=O)O)c1` [CBK265149], for which the “% of control remaining” value stood at 114.444%.
To `CC(C)Nc1nc2ccccc2nc1OCc1ccc(C2CC2C(=O)N(C)C)cc1` (stereo not drawn) [CBK166091] belongs 76.2381%; to `COc1ccc(C(=O)N2CCN(c3cnn(C)c(=O)c3Cl)CC2)cc1` [CBK305720], 113.828%.
Consider `CC(=O)N1C[C@H]2CCCN(S(=O)(=O)c3ccc4c(c3)CCC4)[C@H]2C1` [CBK282254], for which the “% of control remaining” value is reported as 140.485%.
As to `COc1cc(OC)cc(C(=O)N2CCC3(CC2)NC(=O)c2ccc(OC)cc2O3)c1` [CBK166328], the “% of control remaining” value was 172.504%.
To `Cc1nc(C(F)(F)F)ccc1C(=O)N1CCCC1c1ccc[nH]1` (stereo not drawn) [CBK306328] belongs 63.5609%; to `Cc1ccc2c(CC(=O)NCCn3cncn3)coc2c1` [CBK283240], 113.351%; to `NNC(=O)CSc1nnc(-c2ccc(Cl)cc2)n1-c1ccccc1` [CBK263010], 152.177%.
Take `CN(C)c1ccc(C(=O)N2CC(=O)Nc3ccccc32)cc1` [CBK017839]: the “% of control remaining” value amounted to 98.4075%.
As to `CCOC(=O)C1CCN(S(=O)(=O)c2cccc3cccnc23)CC1` [CBK051242], the “% of control remaining” value worked out at 98.9677%.
For the compound `O=C(CCS(=O)(=O)c1ccccc1)Nc1cccnc1N1CCNCC1` [CBK028262T], the “% of control remaining” value was determined as 113.811%.
As for `Cc1cc(C)nc(Nc2ccc(C3CCCN(S(=O)(=O)c4ccc(F)cc4)C3)nc2)n1` (stereo not drawn) [CBK285987], the figure is 102.275%; as for `Fc1ccc(Sc2cccc(C(F)(F)F)n2)cc1` [CBK115240], 90.5425%; as for `COc1ccc(-c2cc(C(=O)NCCc3ccncc3)cnc2-c2ccc(F)cc2)cc1` [CBK037434], 125.711%.
Consider `COC(=O)C1CCCCN1S(=O)(=O)c1cccs1` (stereo not drawn) [CBK051135], for which the “% of control remaining” value came out at 146.032%.
For `CC(C)(C)C(=O)N1CCC2(CC1)Nc1cccnc1-n1cccc12` [CBK284507], the “% of control remaining” value stood at 94.6484%.
As for `c1ccc(CCNc2nccnc2-c2cccs2)nc1` [CBK036776], the figure is 176.139%; as for `O=C(CN1CCCN(c2ncc(C(F)(F)F)cc2Cl)CC1)Nc1c(F)cccc1F` [CBK074636], 124.435%; as for `CN1C(=O)C2(CC(=O)N(CCC3CCCCC3)C2=O)c2ccccc21` (stereo not drawn) [CBK075461], 99.7877%.
For the compound `CC(c1ccc(F)c(F)c1)N(C)C(=O)Cn1cnc2c(c1=O)CCC2` (stereo not drawn) [CBK306291], the “% of control remaining” value is recorded as 104.085%.
With `Cc1ccc2nc3c(cc(C(=O)NC4CCCC4)c(=N)n3Cc3ccco3)c(=O)n2c1` [CBK265242], the “% of control remaining” value turned out to be 122.648%.
As to `CN1CCC(N2CCN(C(=O)c3ccc4c(c3)no[n+]4[O-])CC2)CC1` [CBK149095], the “% of control remaining” value is listed as 135.217%.
For the compound `O=c1[nH]nc(SCc2csc(COc3ccc(Cl)cc3)n2)n1C1CC1` [CBK295146], the “% of control remaining” value is on record as 99.6143%.
On to `C=C(C)Cn1c(SC(C)C)nnc1-c1ccccc1OC(F)(F)F` [CBK200081], for which the “% of control remaining” value is given as 96.76%.
Turning to `COC(=O)/C=C/c1cn(C2OC(CO)C(O)C2O)c(=O)[nH]c1=O` (stereo not drawn) [CBK201339], the “% of control remaining” value is 111.492%.
With `CN1CCN(NC(=O)COc2ccc(Br)cc2Cl)CC1` [CBK268174], the “% of control remaining” value worked out at 113.873%.
Take `COc1ccc2c(c1)C1(CC(=O)N(CCOc3ccccc3)C1=O)C(=O)N2C` (stereo not drawn) [CBK075168]: the “% of control remaining” value was found to be 103.788%.
For the compound `O=C(c1cc(-c2ccncc2)nc2ccc(Cl)cc12)N1CCN(Cc2ccc3c(c2)OCO3)CC1` [CBK267765], the “% of control remaining” value is listed as 130.194%.
To `CCOc1ccc2ccccc2c1CNCCSc1nnnn1C` [CBK270046C] belongs 150.862%; to `CN1C(C)(C)CC(NC(=O)c2[nH]cnc2C(=O)O)CC1(C)C` [CBK287102], 92.0964%; to `O=C(Cn1ccnc1)Nc1nc(-c2ccccc2F)cs1` [CBK281409], 73.3584%.
On to `O=C1COc2ccccc2C/C=C/CC2(CCN(C(=O)c3cnccn3)CC2)C(=O)NCCN1` [CBK291997], for which the “% of control remaining” value is on record as 172.935%.
As for `CC(=O)Nc1ccc(NCc2cc(Cl)ccc2OCc2ccc(Cl)cc2Cl)cc1` [CBK078179], the figure is 87.8795%.
`Cc1ccc(C(=O)NC(C)c2nnc(SCC(=O)c3ccc(Br)cc3)n2C)cc1` (stereo not drawn) [CBK266183]: the “% of control remaining” value is listed as 139.101%.
Consider `O=C(Cc1c[nH]cn1)N1CCCC2(CCN(C(=O)c3cc(F)c(F)cc3F)C2)C1` (stereo not drawn) [CBK137072], for which the “% of control remaining” value is on record as 95.1961%.
Regarding `Cc1csc(NC(=O)CSc2nnc3[nH]c(=O)cc(C)n23)n1` [CBK294413], the “% of control remaining” value is 148.522%.

Values taken from article PMC12040169 (PLOS Biology, 2025).
